Laboratory results reported in patent US7517874B2 (priority 2007, dated 2009).
At least one compound was matched to its structure with a doubt left.

Sequences of proteins named here, by UniProt entry; tags and fusion partners are left off.
UniProt P21554, whole entry: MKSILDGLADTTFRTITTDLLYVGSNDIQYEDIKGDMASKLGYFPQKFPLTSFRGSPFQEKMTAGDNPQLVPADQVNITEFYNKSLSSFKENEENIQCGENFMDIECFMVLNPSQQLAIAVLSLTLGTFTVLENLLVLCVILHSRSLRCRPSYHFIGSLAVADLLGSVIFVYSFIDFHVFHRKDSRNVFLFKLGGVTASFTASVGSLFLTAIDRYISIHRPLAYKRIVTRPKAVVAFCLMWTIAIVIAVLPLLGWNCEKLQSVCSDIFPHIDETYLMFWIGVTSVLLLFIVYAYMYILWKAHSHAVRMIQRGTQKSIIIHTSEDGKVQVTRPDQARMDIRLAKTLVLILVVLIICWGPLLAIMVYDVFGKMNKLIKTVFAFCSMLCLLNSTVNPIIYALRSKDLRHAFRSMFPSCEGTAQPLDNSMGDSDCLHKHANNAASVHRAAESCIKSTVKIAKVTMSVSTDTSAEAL

target: T1, rat CB2 receptor (rCB2) (Rattus norvegicus, UniProt Q9QZN9); type: cell-based; settings: agonist or inverse agonist at rCB2
T1 sequence (Q9QZN9 1-360): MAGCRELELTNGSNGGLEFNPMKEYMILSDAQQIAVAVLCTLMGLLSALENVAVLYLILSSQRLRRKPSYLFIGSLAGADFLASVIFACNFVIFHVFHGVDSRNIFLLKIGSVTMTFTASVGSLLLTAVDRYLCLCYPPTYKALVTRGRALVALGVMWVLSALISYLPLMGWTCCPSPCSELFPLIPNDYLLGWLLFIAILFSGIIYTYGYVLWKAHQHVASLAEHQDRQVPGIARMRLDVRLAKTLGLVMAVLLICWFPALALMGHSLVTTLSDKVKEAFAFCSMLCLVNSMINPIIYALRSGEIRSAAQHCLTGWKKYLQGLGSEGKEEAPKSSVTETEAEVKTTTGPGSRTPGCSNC
Protocol: (§1) The ability of compounds to act as agonists or inverse agonists at human CB2 and CB1 receptors (hCB2, hCB1, respectively) and at the rat CB2 receptor (rCB2) was determined by measuring changes in intracellular cAMP levels. Chinese Hamster Ovary (CHO-K1) cell lines stably expressing hCB2 (Genebank: X74328) or hCB1 (Genebank: X54937) were purchased from Euroscreen (Gosselies, Belgium). The rat CB2 receptor was expressed from genomic DNA (provided by M. Abood, California Pacific Medical Center) in CHO-K1 cells from expression plasmid vector, pcDNA3.1.
(§2) Cell lines were grown in suspension in EX-CELL 302 CHO Serum-free medium (Sigma, cat #14324C) supplemented with 1% Fetal Bovine Serum, glutamine and non-essential amino-acids under 0.4 mg/mL G418 selection.
(§3) Receptor mediated responses were determined by measuring changes in intracellular cAMP using LANCE cAMP detection kit (cat #AD0264, Perkin Elmer, Wellesley, Mass.) based on time-resolved fluorescence resonance energy transfer (TR-FRET). Changes in cAMP were determined in cells pre-incubated with IBMX (isobutyl methylxanthine) and prestimulated with NKH-477 (a water soluble forskolin derivative, cat #1603, Tocris, Ellisville, Mo.) to increase basal cAMP levels as detailed below.
(§4) On the day of the experiment, cells were spun at low speed for 5 min at room temperature. The supernatant was removed and cells were resuspended in stimulation buffer (Hanks Buffered Salt Solution/5 mM HEPES, containing 0.5 mM IBMX (cat #17018, Sigma) and 0.02% BSA (Perkin-Elmer, cat #CR84-100)). Cell clumps were removed by filtering through cell strainer 40 μm (BD Falcon, Discovery Labware, Bedford, Mass.) and diluted to 2×10^5 cells/mL. Antibody supplied with the LANCE cAMP immunoassay kit was then added according to the manufacturer's instructions. An aliquot of cells was taken for un-induced controls. To the remaining cells was added NKH-477 (a water soluble forskolin derivative, Tocris cat #1603) to a final concentration of 2-8 μM. Cells were then incubated for 30 min at room temperature prior to adding to Proxiplates containing test compounds (final DMSO concentration was less than 0.5%) with a Multidrop bulk dispenser, followed by a sixty minute incubation at room temperature. The response was stopped by addition of the detection mix supplied with the LANCE kit. The reagents were allowed to equilibrate for three hours prior to reading on an Envision multi-mode detector (Perkin-Elmer). TR-FRET was measured using a 330-380 nm excitation filter, a 665 nm emission filter, dichroic mirror 380 nm and Z=1 mm. Cyclic AMP concentrations in each well were back-calculated from a cAMP standard curve run concurrently during each assay. Each plate contained 16 wells of forskolin stimulated cells and 16 wells of forskolin plus CP55,940-treated cells. Cells were treated with 1 μM CP55,940 (Tocris cat. #0949). Concentrations of cAMP were expressed as a percent of the difference of these two groups of wells. Concentration-response data including EC50 (the concentration of compound producing 50% of the maximal response) and intrinsic activity (the percent maximal activation compared to full activation by CP55,940) were determined using a four-parameter non-linear regression algorithm (Xlfit equation 251, IDBS).

**Q.** How did the “+/− RCB2” value turn out when `CNC(=O)[C@@H](NC(=O)c1nc(-c2csc3ccccc23)n2c1CNCC2)C(C)(C)C` [Compound 20, (S)-3-(benzo[b]thiophen-3-yl)-N-(3,3-dimethyl-1-(methylamino)-1-oxobutan-2-yl)-5,6,7,8-tetrahydroimidazo[1,5-a]pyrazine-1-carboxamide] was run?
**A.** +

**Q.** For `CNC(=O)[C@@H](NC(=O)c1nc(-c2ccsc2)n2c1CN(C)CC2)C(C)(C)C` [Compound 73, (S)-N-(3,3-dimethyl-1-(methylamino)-1-oxobutan-2-yl)-7-methyl-3-(thiophen-3-yl)-5,6,7,8-tetrahydroimidazo[1,5-a]pyrazine-1-carboxamide], which “+/− RCB2” value is on record?
**A.** +

**Q.** For `CNC(=O)[C@@H](NC(=O)c1nc(-c2ccsc2)n2c1CN(CC1CC1)CC2)C(C)(C)C` [Compound 74, (S)-7-(cyclopropylmethyl)-N-(3,3-dimethyl-1-(methylamino)-1-oxobutan-2-yl)-3-(thiophen-3-yl)-5,6,7,8-tetrahydroimidazo[1,5-a]pyrazine-1-carboxamide], which “+/− RCB2” value is on record?
**A.** −

**Q.** How did the “+/− RCB2” value turn out when `CNC(=O)[C@@H](NC(=O)c1nc(-c2cscc2C)n2c1CN(C)CC2)C(C)(C)C` [Compound 81, (S)-N-(3,3-dimethyl-1-(methylamino)-1-oxobutan-2-yl)-7-methyl-3-(4-methylthiophen-3-yl)-5,6,7,8-tetrahydroimidazo[1,5-a]pyrazine-1-carboxamide] was run?
**A.** +

**Q.** For `CC(C)(C)[C@@H](CO)NC(=O)c1nc(-c2ccccc2)n2c1CN(CC1CC1)CC2` [Compound 84, (S)-7-(cyclopropylmethyl)-N-(1-hydroxy-3,3-dimethylbutan-2-yl)-3-phenyl-5,6,7,8-tetrahydroimidazo[1,5-a]pyrazine-1-carboxamide], which “+/− RCB2” value is on record?
**A.** −

**Q.** How did the “+/− RCB2” value turn out when `CNC(=O)[C@@H](NC(=O)c1nc(-c2ccccc2)n2c1CN(S(=O)(=O)c1ccc(C(F)(F)F)cc1)CC2)C(C)(C)C` [Compound 107, (S)-N-(3,3-dimethyl-1-(methylamino)-1-oxobutan-2-yl)-3-phenyl-7-(4-(trifluoromethyl)phenylsulfonyl)-5,6,7,8-tetrahydroimidazo[1,5-a]pyrazine-1-carboxamide] was run?
**A.** −

**Q.** With `CNC(=O)[C@@H](NC(=O)c1nc(-c2ccccc2)n2c1CN(S(=O)(=O)c1ccc(C#N)cc1)CC2)C(C)(C)C` [Compound 108, (S)-7-(4-cyanophenylsulfonyl)-N-(3,3-dimethyl-1-(methylamino)-1-oxobutan-2-yl)-3-phenyl-5,6,7,8-tetrahydroimidazo[1,5-a]pyrazine-1-carboxamide] as the compound, how does the “+/− RCB2” value read?
**A.** −

**Q.** `CNC(=O)[C@@H](NC(=O)c1nc(-c2ccsc2)n2c1CN(S(=O)(=O)c1ccc(F)cc1)CC2)C(C)(C)C` [Compound 109, (S)-N-(3,3-dimethyl-1-(methylamino)-1-oxobutan-2-yl)-7-(4-fluorophenylsulfonyl)-3-(thiophen-3-yl)-5,6,7,8-tetrahydroimidazo[1,5-a]pyrazine-1-carboxamide] was tested. Which “+/− RCB2” value did it give?
**A.** −

**Q.** How did the “+/− RCB2” value turn out when `CNC(=O)[C@@H](NC(=O)c1nc(Br)n2c1CN(C)CC2)C(C)(C)C` [Compound 203, (S)-3-bromo-N-(3,3-dimethyl-1-(methylamino)-1-oxobutan-2-yl)-7-methyl-5,6,7,8-tetrahydroimidazo[1,5-a]pyrazine-1-carboxamide] was run?
**A.** +

**Q.** How did the “+/− RCB2” value turn out when `CNC(=O)[C@@H](NC(=O)c1nc(-c2ccccc2)n2c1C[N+](C)(C)CC2)C(C)(C)C` [Compound 311, (S)-1-(3,3-dimethyl-1-(methylamino)-1-oxobutan-2-ylcarbamoyl)-7,7-dimethyl-3-phenyl-5,6,7,8-tetrahydroimidazo[1,5-a]pyrazin-7-ium iodide] was run?
**A.** +

**Q.** How did the “+/− RCB2” value turn out when `CNC(=O)[C@@H](NC(=O)c1nc(Br)n2c1CN(C)CCC2)C(C)(C)C` [Compound 324, (S)-3-bromo-N-(3,3-dimethyl-1-(methylamino)-1-oxobutan-2-yl)-8-methyl-6,7,8,9-tetrahydro-5H-imidazo[1,5-a][1,4]diazepine-1-carboxamide] was run?
**A.** +

**Q.** `CNC(=O)[C@@H](NC(=O)c1nc(C2=CCC(C(C)(C)C)CC2)n2c1CN(C)CCC2)C(C)(C)C` (stereo partly drawn) [Compound 450, 3-(4-tert-butycyclohex-1-enyl)-N-((S)-3,3-dimethyl-1-(methylamino)-1-oxobutan-2-yl)-8-methyl-6,7,8,9-tetrahydro-5H-imidazo[1,5-a][1,4]diazepine-1-carboxamide] was tested. Which “+/− RCB2” value did it give?
**A.** +

**Q.** How did the “+/− RCB2” value turn out when `CNC(=O)[C@@H](NC(=O)c1nc(-c2ccc(Cl)cc2F)n2c1CN(C1CCNCC1)CCC2)C(C)(C)C` [Compound 526, (S)-3-(4-chloro-2-fluorophenyl)-N-(3,3-dimethyl-1-(methylamino)-1-oxobutan-2-yl)-8-(piperidin-4-yl)-6,7,8,9-tetrahydro-5H-imidazo[1,5-a][1,4]diazepine-1-carboxamide] was run?
**A.** −

target: human CB1 receptor (hCB1) (Homo sapiens, UniProt P21554); type: cell-based; settings: agonist or inverse agonist at hCB1
Protocol: as §1, §2, §3, §4

**Q.** For `CNC(=O)[C@@H](NC(=O)c1nc(C2=CCC(C(C)(C)C)CC2)n2c1CN(C)CCC2)C(C)(C)C` (stereo partly drawn) [Compound 450, 3-(4-tert-butycyclohex-1-enyl)-N-((S)-3,3-dimethyl-1-(methylamino)-1-oxobutan-2-yl)-8-methyl-6,7,8,9-tetrahydro-5H-imidazo[1,5-a][1,4]diazepine-1-carboxamide], which “+/− HCB1” value is on record?
**A.** +
